For 14 molecules, AC50 results are on record in PubChem BioAssay AID1487 (National Center for Advancing Translational Sciences (NCATS), 2009).

Usually AC50 stands for the midpoint of the concentration-response curve, whichever way the signal moves.

This experiment can be described thus: qHTS Assay for Modulators of Lamin A Splicing. The settings on record: HeLa LMNA splicing GFP/RFP minigene ratio, 48 h. A digest of the protocol:
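S3 HeLa cells stably expressing lamin A-EGFP splicing minigene plus DsRed2, 600 cells/well, 48 h compound exposure at 37C. Laser-scanning cytometry; analysed as GFP (500-530 nm)/RFP (575-640 nm) total intensity ratio; 0.5% DMSO vehicle.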

The mark [1] stands for this setting: measured here: GFP splicing reporter channel.
Where [2] appears, read: measured here: RFP viability control channel.

The other results are listed elsewhere or left out. Shown are side measurements of this screen, not its main read-out; they come without a call. Compounds called inactive in the main read-out are mostly missing here. The note in brackets gives the kind of curve behind each potency; many fits are weak.

In the case of `C=CCn1c(SCCC)nc2sc3c(c2c1=O)CCc1ccccc1-3`, under setting [1], the AC50 was 12.6 µM [falling, partial curve]. As for `Cc1nn(-c2ccccc2)c(N2CCCC2)c1/C=N/NC(=O)c1cc(-c2ccccn2)nc2ccccc12`, the AC50 under setting [2] is 12.6 µM [rising, partial curve]. Consider `Cc1cccc(N/N=C(\C(N)=O)C2=NC(C)(C)Cc3ccccc32)c1`, for which the AC50 under setting [1] is 12.6 µM [rising, partial curve] and the AC50 under setting [2] was 15.8 µM [rising, partial curve]. In the case of `CCOC(=O)c1c(C)sc(Sc2ccc(Cl)cc2[N+](=O)[O-])c1OC`, the AC50 was 35.5 µM [rising, single point] under setting [1] and 35.5 µM [rising, single point] under setting [2]. As for `COc1ccc(N(CC(O)Cn2cnc3ccccc32)S(=O)(=O)c2ccc(C)cc2)cc1` (stereo unspecified), under setting [2], the AC50 is 35.5 µM [rising, single point]. On the same count and under the same terms, the value for `CC(NC(=O)NC1CCCCC1)c1ccccc1` (stereo unspecified) was 20 µM [rising, single point].

For `Cc1ccc(NC(=O)C(NC2CCCc3ccccc32)c2ccccc2)c([N+](=O)[O-])c1` (stereo unspecified), the AC50 reads like this: under setting [1], 7.94 µM [rising, single point]; under setting [2], 15.8 µM [rising, single point]. With `N#Cc1cccc(-c2nc(NCc3ccccc3)c3ccccc3n2)c1`, the AC50 runs as follows: under setting [1], 35.5 µM [falling, single point]; under setting [2], 22.4 µM [falling, single point]. For the molecule `COc1ccc(CNc2ncnc3ccc(-c4ccccc4OC)cc23)c(OC)c1`, the AC50 was 10 µM [falling, partial curve] under setting [1] and 11.2 µM [falling, partial curve] under setting [2]. In the case of `CC1Cc2ccccc2N1C(=O)CSc1nnnn1-c1ccc2c(c1)OCCO2` (stereo unspecified), the AC50 under setting [1] was 20 µM [rising, partial curve, poor fit]. On to `O=C(CSCc1cc(=O)c2ccccc2[nH]1)Nc1cccc(C(F)(F)F)c1`, for which the AC50 under setting [1] is 0.447 µM [rising, partial curve, poor fit] and the AC50 under setting [2] was 0.562 µM [rising, partial curve, poor fit].

With `C=C(C)Cn1c(C)cc(C)c(S(=O)(=O)c2ccccc2C)c1=O`, the AC50 under setting [1] was 15.8 µM [rising, single point]. In the case of `Cc1nc2ccc(C(=O)Nc3cccc([N+](=O)[O-])c3)cc2s1`, the AC50 by setting is: under setting [1], 3.98 µM [falling, partial curve, poor fit]; under setting [2], 0.316 µM [falling, full curve, poor fit].

With `COC(=O)c1ccc(CSc2nnc(-c3ccc4c(c3)OCO4)n2-c2ccccc2)o1`, the half-maximal activity concentration (AC50) under setting [2] was 0.112 µM [rising, full curve, poor fit].
